Drawing on article PMC9903493, this text covers binding for one substance.

Amino acid sequences for entries named in this document (tags omitted).
UniProt O00429: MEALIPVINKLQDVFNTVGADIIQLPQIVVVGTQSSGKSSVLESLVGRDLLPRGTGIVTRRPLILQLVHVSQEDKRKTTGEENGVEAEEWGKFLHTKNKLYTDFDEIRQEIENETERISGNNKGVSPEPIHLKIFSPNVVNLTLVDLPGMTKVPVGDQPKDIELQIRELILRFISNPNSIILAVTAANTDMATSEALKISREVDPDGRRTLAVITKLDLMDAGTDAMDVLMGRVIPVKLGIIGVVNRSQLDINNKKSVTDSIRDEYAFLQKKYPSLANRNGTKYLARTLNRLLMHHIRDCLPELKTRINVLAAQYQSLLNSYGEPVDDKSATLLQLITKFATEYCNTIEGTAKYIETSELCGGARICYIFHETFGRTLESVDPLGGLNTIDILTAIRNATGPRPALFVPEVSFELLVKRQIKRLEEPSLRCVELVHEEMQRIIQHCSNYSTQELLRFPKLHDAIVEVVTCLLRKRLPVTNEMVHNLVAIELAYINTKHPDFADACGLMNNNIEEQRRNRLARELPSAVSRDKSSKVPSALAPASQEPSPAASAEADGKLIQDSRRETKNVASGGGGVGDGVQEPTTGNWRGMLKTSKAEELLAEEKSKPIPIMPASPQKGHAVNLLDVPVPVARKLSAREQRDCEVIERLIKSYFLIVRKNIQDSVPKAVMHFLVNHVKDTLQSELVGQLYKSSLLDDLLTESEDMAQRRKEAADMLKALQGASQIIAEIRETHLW

In the test the target is T1, Phosphoglycerate mutase 5 (human (endogenous in HK-2)) (UniProt Q96HS1).
T1 sequence: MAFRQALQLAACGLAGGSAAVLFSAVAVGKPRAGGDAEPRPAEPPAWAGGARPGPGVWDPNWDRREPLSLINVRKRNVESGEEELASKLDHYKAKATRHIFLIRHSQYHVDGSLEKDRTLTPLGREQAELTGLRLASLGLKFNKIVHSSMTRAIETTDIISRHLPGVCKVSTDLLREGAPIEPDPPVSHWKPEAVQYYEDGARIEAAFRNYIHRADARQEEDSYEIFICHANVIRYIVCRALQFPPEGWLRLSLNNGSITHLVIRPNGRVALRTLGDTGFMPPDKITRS
Nature of the test: co-IP; HK-2 cell lysates incubated with a PGAM5 antibody overnight at 4 °C, protein A/G agarose beads, western blot; normal IgG as negative control; endogenous proteins.

Results are given in words; binding and its absence hold for the method and conditions named. Binding seen in cells or lysates may run through a third protein. Some binding calls cover weakened binding; strength is not graded here.

For the substance “Dynamin-related protein 1 (from UniProt O00429 1-736)”, the binding result is reported as “binds”.
